Results taken from patent publication US20260049103A1 (WINKEY TECHNOLOGY USA INC, priority 2023, published 2026).

Experiment: general procedure: Fmoc solid-phase peptide synthesis; Amide Resin (substitution degree 1.72 mmol/g, 100-200 mesh) with Fmoc-Linker; Wang Resin; HOBt/DIC
Settings: whole synthesis, scale of the general procedure 9 g of Amide Resin, 10 g of Wang Resin

Substance: Palmitoyl-G[Nle]KLY-NH2
- final purity (method not given): 97.16%

Substance: Palmitoyl-G[Nle]RLY-NH2
- final purity (method not given): 98.23%

Substance: Palmitoyl-KVKLY-NH2
- final purity (method not given): 96.55%

Substance: Palmitoyl-KVKLY-OH
- final purity (method not given): 97.615%

Substance: Palmitoyl-VKLYGS-NH2
- final purity (method not given): 97.08%

Non-standard residues stand in square brackets, D forms with d. *: point of attachment. Palmitoyl = CCCCCCCCCCCCCCCC(=O)*; Nle = CCCC[C@H](N)C(=O)O
